Results as given in PubChem BioAssay AID504467 (National Center for Advancing Translational Sciences (NCATS), 2011).
In all, about 330,000 compounds went through this assay and about 7,700 (2.3%) were called active. The shares of active, inactive and inconclusive entries below differ from those in the screen. Calls follow the shape of the dose curve; as a rule, active = well fitted inhibition curve with a large enough effect; inconclusive = small, poorly fitted or top-dose-only effect, or effect the other way; inactive = flat fitted curve, though single readings scatter. Potencies of inconclusive entries are doubtful fits and often do not repeat.

Test: qHTS screen for small molecules that inhibit ELG1-dependent DNA repair in human embryonic kidney (HEK293T) cells expressing luciferase-tagged ELG1; also: nearly all actives have a fitted effect of over 55% in size
Conditions: HEK293T ELG1-luciferase reporter, luminescence, 16 h, DNA damage induced by 5-fluorouridine; activity change, negative = inhibition: at 46.1 µM (top of the series)
Outline: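 5-Fluorouridine DNA damage + compound/DMSO, 2,000 cells/well, 16 h, 37 °C/5% CO2. ONE-Glo, 30 min RT, luminescence. Readout = decrease in reporter signal.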
% is scaled to controls: 0 for no effect and ±100 for the full control effect; potency is read from the fitted curve at half-maximal effect.

Row | SMILES | Potency | activity change, negative = inhibition
1 | O=C(NCCCN1CCCC1=O)c1ccccc1OCc1ccc(Cl)cc1Cl | inconclusive: 29.1 µM [activator, single point] | –
2 | COC(=O)C1=CN(c2ccc(OC)cc2)C=C(C(=O)OC)C1c1ccc([N+](=O)[O-])cc1 | inconclusive: 20.6 µM [inhibitor, single point] | –
3 | COc1ccc(NC(=O)CC2CC3CCC2C3)cc1S(=O)(=O)N1CCOCC1 (configuration not stated) | inconclusive: 29.1 µM [inhibitor, single point] | –
4 | O=[N+]([O-])c1ccccc1/C=N\N1CCN(c2ccccc2)CC1 | inconclusive: 16.4 µM [activator, partial curve] | –
5 | N/C(=N\OC(=O)c1ccccc1)c1cccnc1 | inconclusive: 20.6 µM [activator, partial curve] | –
6 | N#Cc1c(-c2ccccc2)cc(-c2ccccc2)[nH]c1=O | inconclusive: 29.1 µM [activator, single point] | –
7 | CCOc1ccc2[nH]c3c(NCCOC)ncnc3c2c1 | inconclusive: 23.1 µM [activator, single point] | –
8 | COc1cc(/C=N/NC(=O)c2nonc2C)ccc1O | inconclusive: 32.6 µM [activator, partial curve, poor fit] | –
9 | O=C(NC(=S)NCC1CCCO1)c1ccc(Br)o1 (configuration not stated) | inconclusive: 18.3 µM [activator, partial curve] | –
10 | Cc1nc2cc(NC(=O)N3c4ccccc4CC3C)ccc2n1C (configuration not stated) | inconclusive: 0.651 µM [activator, full curve] | –
11 | c1ccc(CN(Cc2ccccc2)c2ncnc3c2nnn3Cc2ccccc2)cc1 | inconclusive: 18.3 µM [inhibitor, single point] | –
12 | O=C1OCCN1C(=O)[C@H]1[C@H](c2ccc([N+](=O)[O-])cc2)C(c2cccc(Cl)c2)=NN1c1ccccc1 | inconclusive: 29.1 µM [activator, partial curve, poor fit] | –
13 | O=C(N/N=C/c1ccc(Br)o1)c1ccc2c(c1)OCCO2 | inconclusive: 4.61 µM [activator, partial curve] | –
14 | Cc1cc(=O)oc2c3c(cc(OCC(=O)Nc4ccc(CCO)cc4)c12)OC(C)(C)CC3 | inconclusive: 23.1 µM [inhibitor, single point] | –
15 | O=C1C=C(c2ccc(O)cc2)C[C@@H](c2ccc3c(c2)OCO3)C1 | inconclusive: 23.1 µM [inhibitor, single point] | –
16 | O=S(=O)(c1ccc2ccccc2c1)N1CCCCCC1 | inconclusive: 29.1 µM [inhibitor, single point] | –
17 | CCc1c(C)nc(SCC(=O)Nc2ccc3c(c2)OCCO3)[nH]c1=O | inconclusive: 14.6 µM [activator, partial curve, poor fit] | –
18 | Cc1ccc(-c2cc(N)nc(-c3ccccc3)c2)cc1 | inconclusive: 20.6 µM [activator, partial curve] | –
19 | COc1cccc(CC2(CO)CCN(S(=O)(=O)c3ccc(OC)cc3OC)CC2)c1 | inconclusive: 29.1 µM [inhibitor, partial curve, poor fit] | –
20 | CCc1nnc2n1N=C(c1cccc([N+](=O)[O-])c1)CS2 | inconclusive: 9.2 µM [inhibitor, partial curve, poor fit] | –
21 | CCc1cc2c(=O)nc3n(c2s1)Cc1ccccc1/C3=C(/O)c1ccccc1Cl | – | inactive: -1.01%
22 | COc1ccc(Nc2nc(C(=O)NCc3ccco3)cs2)cc1 | inconclusive: 13 µM [inhibitor, partial curve] | –
23 | Cc1cccc(-c2cc(C(=O)NCc3ccccn3)c3ccccc3n2)c1 | active: 16.4 µM | –

Nos. 3 to 5, reprinted for reference:
Row | SMILES | Potency | activity change, negative = inhibition
3 | COc1ccc(NC(=O)CC2CC3CCC2C3)cc1S(=O)(=O)N1CCOCC1 (configuration not stated) | inconclusive: 29.1 µM [inhibitor, single point] | –
4 | O=[N+]([O-])c1ccccc1/C=N\N1CCN(c2ccccc2)CC1 | inconclusive: 16.4 µM [activator, partial curve] | –
5 | N/C(=N\OC(=O)c1ccccc1)c1cccnc1 | inconclusive: 20.6 µM [activator, partial curve] | –

Next part

Row | SMILES | Potency | activity change, negative = inhibition
24 | S=c1[nH]nc(-c2cccs2)n1Cc1ccccc1 | – | inactive: 4.16%
25 | Cc1cc(NC(=O)C2CCN(S(=O)(=O)c3c(C)noc3C)CC2)ccc1Br | – | inactive: 10.6%
26 | COc1ccc(S(=O)(=O)Oc2c(OC)cc(C(=S)N3CCOCC3)cc2OC)cc1 | – | inactive: -13.5%
27 | O=C1c2ccccc2C(=O)c2cc(NC(=O)C3CC3)ccc21 | inconclusive: 2.31 µM [activator, full curve] | –
28 | CCCN1CCN(CCCNC(=O)c2ccc3nc(N4CCC(C)CC4)sc3c2)CC1 | inconclusive: 0.259 µM [activator, full curve] | –
29 | C=CCn1c(SC)nc2sc3c(c2c1=O)CCc1ccccc1-3 | inconclusive: 20.6 µM [activator, partial curve, poor fit] | –
30 | Cc1cc(NC(=O)CSc2nc3ccsc3c(=O)n2NC(=O)c2ccccc2)no1 | inconclusive: 4.61 µM [activator, partial curve] | –
31 | CC(=O)c1cnc(Nc2cccc(C)c2)s1 | inconclusive: 18.3 µM [activator, partial curve] | –
32 | CCCOc1ccc(C(=O)NNC(=S)NC(=O)c2ccccc2[N+](=O)[O-])cc1 | inconclusive: 31.6 µM [activator, single point] | –
33 | CCN(CC)c1ccc(C2=NNC(=O)CC2C)cc1[N+](=O)[O-] (configuration not stated) | inconclusive: 25.9 µM [activator, single point] | –
34 | O=C(CCN1CCN(C(=O)c2ccccc2)CC1)c1ccc(Br)cc1 | – | inactive: 2.44%
35 | Cc1cc(C)c2c(N)c(C(=O)Nc3ccccc3F)sc2n1 | inconclusive: 2.06 µM [activator, full curve] | –
36 | Cc1ccc(SCc2ccc(C(=O)N3CCCC3)cc2)cc1 | inconclusive: 23.1 µM [activator, single point] | –
37 | O=C(NNC(=O)c1cccc(S(=O)(=O)N2CCc3ccccc32)c1)c1ccccc1 | inconclusive: 5.17 µM [inhibitor, full curve] | –
38 | COc1ccc(Nc2nc(-c3sc(C)nc3C)cs2)c(OC)c1 | inconclusive: 12.6 µM [inhibitor, partial curve, poor fit] | –
39 | COc1ccc(F)cc1S(=O)(=O)Nc1cc2c3c(c1)CCC(=O)N3CCC2 | inconclusive: 4.61 µM [activator, partial curve, poor fit] | –
40 | CCn1c(=O)cc(OCC(=O)NCC2CCCO2)c2ccccc21 (configuration not stated) | inconclusive: 29.1 µM [activator, single point] | –
41 | O=C1CC(c2c(F)cccc2Cl)C2=C(COC2=O)N1 (configuration not stated) | – | inactive: 9.93%
42 | Cc1ccsc1CN(C)C(=O)C(NC(=O)c1cccc(S(=O)(=O)N2CCOCC2)c1)C(C)C (configuration not stated) | – | inactive: -14.7%
43 | Cc1ccnc(NS(=O)(=O)c2ccc(NC(=O)C3COc4ccccc4O3)cc2)n1 (configuration not stated) | – | inactive: -16.8%
44 | O=C(Nc1ccccc1)C1=C[C@@H](c2ccc(C(F)(F)F)cc2)C[C@@H](OCc2ccc(CO)cc2)O1 | inconclusive: 16.4 µM [inhibitor, partial curve] | –
45 | CC1=NN(c2ccc(C(=O)O)cc2)C(=O)CC1 | inconclusive: 16.4 µM [activator, partial curve] | –
46 | O=C(NCC(=O)N1CCN(c2ncccn2)CC1)c1ccc(F)cc1 | – | inactive: 0%

Row | SMILES | Potency | activity change, negative = inhibition
47 | CC(C)c1nc2sc3c(=O)[nH]cnc3c2c2c1CCCC2 | inconclusive: 29.1 µM [activator, single point] | –
48 | Cc1ccnc(NC(=O)c2ccc(S(=O)(=O)N3CCCC3)cc2)c1 | inconclusive: 25.9 µM [activator, single point] | –
49 | CCc1nnc(NC(=O)CCS(=O)(=O)c2ccccc2)s1 | inconclusive: 32.6 µM [activator, partial curve, poor fit] | –
50 | Fc1cnc(N2CCN(c3ccccc3)CC2)nc1N1CCN(c2ccccc2)CC1 | inconclusive: 2.59 µM [inhibitor, partial curve, poor fit] | –
51 | COc1cc2[nH]c(=O)n(CCC(=O)N3CCN(Cc4ccc5c(c4)OCO5)CC3)c(=O)c2cc1OC | – | inactive: 5.53%
52 | COc1cccc2sc(NNC(=O)C3=COCCO3)nc12 | inconclusive: 20.6 µM [activator, partial curve] | –
53 | O=C(NCC(=O)N1CCN(S(=O)(=O)c2cccs2)CC1)c1ccc(Cl)cc1 | – | inactive: 12.2%
54 | CC1CCN(C(=O)COC(=O)c2c[nH]c3ccccc23)CC1 | inconclusive: 20.6 µM [activator, partial curve, poor fit] | –
55 | COc1cc(C2C(N3C(=O)c4ccccc4C3=O)C(=O)N2c2cccc(C)c2)cc(OC)c1OC (configuration not stated) | inconclusive: 8.2 µM [activator, partial curve, poor fit] | –
56 | O=C(NCc1ccc2c(c1)OCO2)c1ccc(CS(=O)Cc2ccc(Cl)cc2)o1 (configuration not stated) | inconclusive: 20.6 µM [inhibitor, single point] | –
57 | CC1=NN(C(N)=S)C(=O)C1N=Nc1ccccc1 (configuration not stated) | inconclusive: 16.4 µM [activator, partial curve] | –
58 | COc1ccc(NS(=O)(=O)c2cccc(C(=O)Nc3ccccc3C(=O)O)c2)cc1 | – | inactive: -6.28%
59 | Cc1ccc(C)c(C(=O)CN2C3=NCCCN3c3ccccc32)c1 | – | inactive: -18.5%
60 | CC1CCCCN1Cc1c(O)ccc2c(=O)c(-c3ccc(Cl)cc3Cl)coc12 (configuration not stated) | – | inactive: -11.5%
61 | COc1ccccc1C(=O)NNC1=C(C(=O)C(F)(F)F)CCC1 | – | inactive: -21.7%
62 | CCN1CCN(S(=O)(=O)c2ccc(Cl)c(C(=O)NCc3nc4ccccc4[nH]3)c2)CC1 | – | inactive: 0.801%
63 | O=C(O)C1CC(c2ccccc2)=Nc2ccccc2S1 (configuration not stated) | inconclusive: 23.1 µM [activator, partial curve] | –
64 | COc1cccc(/C=C2\CCCCC2=O)c1 | inconclusive: 16.4 µM [activator, single point] | –
65 | Cc1ncoc1C(=O)Nc1ccccc1-c1ccccc1 | – | inactive: -2.49%
66 | O/C(=C\c1ccc2ccccc2n1)c1ccc(O)cc1O | inconclusive: 1.64 µM [activator, partial curve] | –
67 | COc1ccc(NC(=O)CN(C)C(=O)c2ccc(C)s2)cc1 | inconclusive: 35.5 µM [activator, single point] | –
